The other results are listed elsewhere or left out. Further columns of the screen follow, without active or inactive calls. The list favours compounds with an active or inconclusive main result. Words in brackets tell the shape of the fitted curve; partial curves, single points and poor fits give uncertain potencies.
Test: qHTS Assay for Lipid Storage Modulators in Drosophila S3 Cells;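 as to cell number change: cells counted by Cell Tracker Red CMTPX staining in the red channel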
Settings: BODIPY lipid droplet fluorescence, 18-24 h; for cell number change: measured here: cell count max response, cells fed with added oleic acid
In short: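 Laser-scanning cytometry quantifies lipid droplet accumulation (500–530 nm total intensity; droplet/cell object ratio) in oleic acid-fed (400 uM added) Drosophila S3 cells treated with a concentration series. 20 uM Triacsin C defined 100% inhibition.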

[1] = measured here: lipid fluorescence (Fed channel) AC50, cells fed with added oleic acid
[2] = measured here: cell number channel AC50, cells fed with added oleic acid

Structure (SMILES)	cell number change [%]	AC50 [1]	AC50 [2]
Cc1cc(C)n(-c2ccc(C(=O)Nc3cc(S(=O)(=O)N(C)C)ccc3Cl)cc2)n1	1.26	0.0731 µM [rising, full curve, poor fit]	–
O=C(Nn1c(-c2ccccc2)nc2ccccc2c1=O)C1CCC1	9.92	3.66 µM [falling, full curve, poor fit]	–
CCN(c1ccc(NC(=O)c2ccc(Cl)nc2)cc1)C(C)C	-25.9	–	–
Cc1ccc(OCC(=O)OC(C)CN(C)Cc2ccccc2)cc1 (stereo unspecified)	2.01	0.00651 µM [falling, full curve, poor fit]	–
O=C1CSC(=S)N1/N=C/c1c(F)cccc1F	-14.3	–	–
Cc1cc(C)c(OCCCCCNCCO)c(C)c1	–	6.51 µM [falling, single point]	–
CC1CCCC2(C1)NC(=S)c1c(sc3c1CCCC3)N2 (stereo unspecified)	-15	6.51 µM [rising, single point]	–
Cc1cccc(Nc2nc(NCc3ccco3)nc(N)c2[N+](=O)[O-])c1	-18.9	18.4 µM [falling, single point]	–
CN(CC(=O)Nc1ccccc1Br)Cc1nc2ccccc2c(=O)[nH]1	0.136	6.51 µM [falling, single point]	–
Cc1[nH]n(-c2ccccc2)c(=O)c1N=Nc1ccc(C#N)cc1	-12.1	6.51 µM [falling, single point]	–
CCOc1[nH]n(-c2ccc(Cl)cc2)c(=O)c1C=NCC(=O)OC	12	–	–
CC(CCc1ccccc1)NC(=O)C1CCN(C(=O)c2sccc2-n2cccc2)CC1 (stereo unspecified)	11	–	–
N#Cc1nc(COc2cccc(Cl)c2)oc1NCCN1CCOCC1	–	–	3.26 µM [rising, single point]
Cc1ccc(CNC(=O)C(OC(=O)c2ccco2)C(C)C)cc1 (stereo unspecified)	36.2	20.6 µM [rising, partial curve]	9.2 µM [rising, partial curve]
O=C(Nc1ccccc1N1CCOCC1)c1ccc2c(c1)OCCO2	-41.9	23.1 µM [falling, partial curve]	16.4 µM [falling, single point]
COc1cc2[nH]c(=S)nc(NCc3cccc(Cl)c3)c2cc1OC	-8.33	1.16 µM [falling, full curve]	–
CCN(CC)C(=O)CSc1nc(O)cc(=O)n1C	7.37	29.1 µM [rising, single point]	–
Cc1c(C)c2c(OCC(=O)NCc3ccccn3)cc3c(c2oc1=O)CCC(C)(C)O3	-12.3	0.731 µM [falling, full curve]	–
CC(C)c1csc(CN2CCCC(CNC(=O)c3cccc4ccccc34)C2)n1 (stereo unspecified)	-31.1	10.3 µM [falling, partial curve, poor fit]	23.1 µM [falling, single point]
O=C(COC(=O)c1cnccn1)c1ccc(OC(=O)c2ccccc2)cc1	-62.9	–	16.4 µM [falling, single point]

Structure (SMILES)	cell number change [%]	AC50 [1]	AC50 [2]
COCc1c(C(=O)OCC(=O)Nc2ccc(OC(F)F)cc2)oc2ccccc12	18.2	1.64 µM [falling, partial curve]	–
CCOc1nc(N2CCOCC2)nc(C)c1[N+](=O)[O-]	0.856	4.11 µM [rising, partial curve, poor fit]	0.651 µM [rising, partial curve, poor fit]
COc1ccc(NC(=O)Cc2ccsc2)c(OC)c1	17.4	18.4 µM [rising, partial curve, poor fit]	–
O=C(NC(=S)Nc1ccc(S(=O)(=O)Nc2nccs2)cc1)c1ccc(F)c(F)c1	–	0.164 µM [falling, full curve, poor fit]	–
Cc1occc1-c1nnc(SCC(=O)Nc2ccc(F)cc2)n1Cc1ccccc1	-2.66	1.46 µM [rising, partial curve]	–
COc1ccc(N2CCN(C(CNS(=O)(=O)c3cc(F)ccc3F)c3cccnc3)CC2)cc1 (stereo unspecified)	277	29.1 µM [rising, partial curve]	25.9 µM [rising, partial curve]
CC(=O)c1sc(NC(=O)COc2c(C)cc(Cl)cc2C)nc1C	32.6	–	0.13 µM [rising, full curve]
O=C(C1CC1)N1N=C(c2ccccc2)CC1(O)C(F)(F)F (stereo unspecified)	-27.3	29.1 µM [falling, single point]	–
Brc1ccccc1-c1nnc2sc(-c3ccc4c(c3)OCCO4)nn12	76.8	6.51 µM [rising, single point]	18.4 µM [rising, partial curve]
Cc1cc(C)cc(N(CCC#N)C(=O)COC(=O)c2ccccc2SCC(=O)N2CCCC2)c1	40.8	–	6.51 µM [rising, partial curve]
COc1cccc(CNC(=O)Cn2c(=O)c3cccn3c3ccccc32)c1	101	29.1 µM [rising, single point]	23.1 µM [rising, partial curve, poor fit]
Cc1ccc(C)c(N2CCN(C(=O)CC3Sc4ccccc4NC3=O)CC2)c1 (stereo unspecified)	-0.891	6.51 µM [falling, single point]	–
O=C1NC(=O)C2(COC(c3ccccc3Cl)OC2)S1 (stereo unspecified)	2.06	1.16 µM [rising, single point]	–
CC(C)(NC(=O)c1cc(Cl)c2ccccc2c1O)C(=O)O	7	29.1 µM [falling, single point]	–
N#CCC(=O)Nc1ccc(C(=O)OCC(=O)N=c2sccn2Cc2ccccc2Cl)cc1	–	6.51 µM [rising, single point]	6.51 µM [rising, single point]
COc1cccc(NC(=O)c2cnc[nH]2)c1	47.7	–	8.2 µM [rising, single point]
COC(=O)c1ccc(C)c(NS(=O)(=O)c2ccc3c(c2)OCCO3)c1	–	–	5.8 µM [rising, partial curve, poor fit]
CC(=O)Nc1ccc(S(=O)(=O)Nc2cccc(-c3csc(C)n3)c2)cc1	-8	0.00461 µM [falling, full curve, poor fit]	–
O=C(CN1C(=O)CCC1=O)NCC12CC3CC(CC(C3)C1)C2	–	6.51 µM [falling, single point]	1.64 µM [falling, partial curve, poor fit]
CN(Cc1ccccc1)C(=O)COc1cc(=O)n(C)c2ccccc12	1.05	0.00411 µM [rising, full curve, poor fit]	–

Structure (SMILES)	cell number change [%]	AC50 [1]	AC50 [2]
CCCCN(C)CC(O)Cn1cc(/C=C/C(=O)c2ccc(C)cc2)c2ccccc21 (stereo unspecified)	-39.2	29.1 µM [falling, single point]	29.1 µM [falling, single point]
Cc1csc(NC(=O)c2cccc(C)c2C)n1	-17.3	0.00731 µM [falling, full curve, poor fit]	–
O=c1c2ccccc2c(C=Nc2cccc(S(=O)(=O)NC3=NCCCCC3)c2)c(O)n1Cc1ccccc1	17.9	18.4 µM [rising, single point]	–
CSCC[C@H](NC(=O)Nc1ccc(C)cc1C)C(=O)O	-16	4.11 µM [falling, full curve, poor fit]	–
COc1cc(C(=O)N2C(=O)c3cccc(N)c3C2=O)cc(OC)c1OC	25.1	32.6 µM [rising, single point]	–
Cc1ccc(OCC(=O)N2CCc3ccccc3C2)cc1	-18.5	29.1 µM [rising, single point]	–
Cc1cc(C(=O)NCc2ccc(S(N)(=O)=O)cc2)c(C)o1	-4.53	5.8 µM [falling, full curve]	–
COc1ccc(N2CCN(C(=O)c3cc4c(s3)-c3ccccc3S(=O)(=O)C4)CC2)cc1	–	–	0.082 µM [rising, full curve, poor fit]
CC(C(=O)N(C)Cc1ccccc1)N1CCN(C/C=C/c2ccccc2)CC1 (stereo unspecified)	24.7	7.31 µM [rising, partial curve, poor fit]	–
O=C(Cc1n[nH]c(=O)c2ccccc12)NCc1ccccc1	11.1	–	–
CC(=O)OCCNc1cc(SCc2ccco2)c2nonc2c1[N+](=O)[O-]	-7.4	20.6 µM [falling, single point]	–
Cc1cccc(N2C(=O)CC(N3CCOCC3)C2=O)c1 (stereo unspecified)	-37.9	–	29.1 µM [falling, single point]
COc1cccc(NC(=S)N(CCN(C)C)C(C)c2ccncc2)c1 (stereo unspecified)	19.5	11.6 µM [rising, single point]	–
CN(C)/C=N/c1cc(=O)n(C)c(=O)n1Cc1ccccc1	7.51	14.6 µM [rising, single point]	–
Cc1cc2ccccc2nc1SCC(=O)N1c2ccccc2CC1C (stereo unspecified)	28.2	2.59 µM [rising, full curve]	0.651 µM [rising, partial curve, poor fit]
Cc1ccc2oc(C(=O)N3CCN(C)C[C@@H]3C(C)C)c(C)c2c1	-3.27	–	–
COC(=O)C1CCN(S(=O)(=O)c2ccc(OC)cc2)CC1	-55.5	18.4 µM [falling, partial curve]	14.6 µM [falling, partial curve, poor fit]
CCOC(=O)Cn1nc(C)c(NC(=O)CCc2ccc(OC)cc2)c1C	-6.46	4.11 µM [falling, single point]	0.731 µM [falling, full curve]

One compound at a time, as listed above:
Cc1csc(NC(=O)c2cccc(C)c2C)n1 in the list: cell number change [%]: -17.3; AC50 [1]: 0.00731 µM [falling, full curve, poor fit]
CC(C(=O)N(C)Cc1ccccc1)N1CCN(C/C=C/c2ccccc2)CC1 (stereo unspecified) in the list: cell number change [%]: 24.7; AC50 [1]: 7.31 µM [rising, partial curve, poor fit]
CN(C)/C=N/c1cc(=O)n(C)c(=O)n1Cc1ccccc1 in the list: cell number change [%]: 7.51; AC50 [1]: 14.6 µM [rising, single point]
CCOC(=O)Cn1nc(C)c(NC(=O)CCc2ccc(OC)cc2)c1C in the list: cell number change [%]: -6.46; AC50 [1]: 4.11 µM [falling, single point]; AC50 [2]: 0.731 µM [falling, full curve]

Reference: PubChem BioAssay AID2685 (National Center for Advancing Translational Sciences (NCATS), 2010)
